Results reported in PubChem BioAssay AID1347076 (National Center for Advancing Translational Sciences (NCATS), 2019).
The campaign covered roughly 400,000 compounds. About 13,000 (3.2%) were called active. Inconclusive results, whose numbers are uncertain, are shown with a selection of clear calls. The call rests on the fitted dose curve; in most records, active means well fitted cell-killing curve with a large enough effect; inconclusive means small, poorly fitted or top-dose-only effect, or effect the other way; inactive means flat fitted curve, though single readings scatter. Potencies beside an inconclusive call are fits to weak or partial responses and may not hold up.

Assay: qHTS assay for MDR1-selective chemotherapeutics: Primary screen using the drug-selected MDR subline cells KB-V1; further: nearly all actives have a fitted effect of over 60% in size
Conditions: KB-V1 MDR cells viability, CellTiter-Glo, 72 h; activity change, negative = cytotoxicity: at 46.1 µM (top of the series)
Outline: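 Cytotoxicity toward P-gp-expressing KB-V1 cells was determined as loss of CellTiter-Glo luminescence after 72 h at 37 degrees C. Compounds were tested in quantitative HTS format across a concentration range, with curves fitted to normalized data.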
On the % scale 0 is the no-effect control and ±100 the full control effect; potency means the concentration at half of the fitted maximal effect.

Compound | Potency | activity change, negative = cytotoxicity
COc1ccccc1N(Cc1ccccc1)S(=O)(=O)c1cccc(C(=O)Nc2cc(C)ccn2)c1 | inactive | 
COc1ccc(SCCN2CCN(C)CCC2=O)cc1 | inconclusive: 29.1 µM [rising, single point] | 
Cn1ccnc1COc1ccc(/C=N/O)cc1 | inactive | 
O=C(O)c1ccccc1N(Cc1ccccc1)C(=O)COc1ccccc1 | inconclusive: 0.0092 µM [rising, full curve] | 
CCOC(=O)c1ccc(NC(=O)COc2cccc3c(=O)n(C)ccc23)cc1 | inactive | 
O=C(CCCCC(=O)NN=Cc1ccccc1O)NN=Cc1ccccc1O | inactive | 
Cc1ccc(CN(Cc2cccn2-c2nnc(N3CCCC3=O)s2)C(=O)Nc2ccc(F)cc2)cc1 | inactive | 
C#CCCOC(=O)N1C2=NC(C(=O)OC)=C(C(=O)OC)[C@@H]3N(Cc4ccccc4)c4ccccc4[C@]23C[C@H]1C(=O)OC | inactive | 
CCOc1ccc(CN(C)C(=O)CNC(=O)c2sc3ccccc3c2Cl)cc1 | inconclusive: 20.6 µM [cytotoxic, single point] | 
O=C(/C=C/c1ccccc1)N/C(=C/c1ccccc1)C(=O)Nc1ccccc1O | active: 23.1 µM | 
CCOc1ccc(NC(=O)N2CCC(c3ccc(C)cc3)C2)cc1 (centres undefined) | active: 20.6 µM | 
CC1CCN(S(=O)(=O)c2ccc(C(=O)Nc3ccccc3-c3nc4ccccc4[nH]3)cc2)CC1 | active: 16.4 µM | 
Cc1oc(-c2ccccc2)cc1C(=O)Nc1cccc2ccccc12 | inconclusive: 23.1 µM [cytotoxic, partial curve, poor fit] | 
O=C(COc1ccc(F)cc1)Nc1ccc(C(=O)OCc2cc(=O)n3nc(C4CC4)sc3n2)cc1 | inconclusive: 23.1 µM [rising, single point] | 
Cc1nc2ccccn2c1C(=O)CSc1ccc(Cl)cc1Cl | inconclusive: 2.59 µM [cytotoxic, partial curve, poor fit] | 
CCOc1ccccc1N(C)C(=O)c1cc2c(=O)n(CC)c3ccccc3c2s1 | inactive | 
O=C1CS/C(=N/N=C/c2ccco2)N1Cc1ccc(F)cc1 | inconclusive: 18.4 µM [cytotoxic, single point] | 
COc1ccc(NC(=O)C(=O)NCC2CCCN2S(=O)(=O)c2cccs2)cc1 (centres undefined) | inconclusive: 29.1 µM [cytotoxic, single point] | 
Cc1ccc(-n2nc(C(=O)Nc3ccc(Br)cc3C)c(=O)n(C)c2=O)cc1 | inconclusive: 29.1 µM [rising, single point] | 
OC(c1ccccc1)C1CN(Cc2ccccc2)CCC1(O)c1ccccc1 (centres undefined) | active: 23.1 µM | 
CCCCCCc1nc2nc(Cl)c(Cl)nc2[nH]1 | inconclusive: 25.9 µM [cytotoxic, single point] | 
CCN(CC)S(=O)(=O)c1cc(NC(=O)COC(=O)C2CCC2)ccc1C | inconclusive: 8.2 µM [rising, partial curve] | 
CCc1nc2c(OCc3ccc(Cl)cc3)cccn2c1N(C)C(=O)C1CC1 | inactive | 

Part of the list above in a different format.
Compound	Potency	activity change, negative = cytotoxicity
CCOc1ccc(CN(C)C(=O)CNC(=O)c2sc3ccccc3c2Cl)cc1	inconclusive: 20.6 µM [cytotoxic, single point]	
CCc1nc2c(OCc3ccc(Cl)cc3)cccn2c1N(C)C(=O)C1CC1	inactive	

3 of the compounds above, tab-delimited.
Compound	Potency	activity change, negative = cytotoxicity
Cc1ccc(-n2nc(C(=O)Nc3ccc(Br)cc3C)c(=O)n(C)c2=O)cc1	inconclusive: 29.1 µM [rising, single point]	
OC(c1ccccc1)C1CN(Cc2ccccc2)CCC1(O)c1ccccc1 (centres undefined)	active: 23.1 µM	
CCCCCCc1nc2nc(Cl)c(Cl)nc2[nH]1	inconclusive: 25.9 µM [cytotoxic, single point]	

More records.

Compound | Potency | activity change, negative = cytotoxicity
O=C(O)CC1(CC(=O)Nc2nccs2)CCCCC1 | inconclusive: 29.1 µM [cytotoxic, single point] | 
Cc1ccc(N(C(=O)Nc2ccccc2)C2=NCC(C)S2)cc1 (centres undefined) | inconclusive: 16.4 µM [cytotoxic, partial curve] | 
CO/N=C/c1ccc(OC)c(Oc2nc(OC)cc(OC)n2)c1 | inactive | 
Cc1nnc(SCCn2c(N3CCN(Cc4ccccc4)CC3)nc3c2c(=O)[nH]c(=O)n3C)s1 | inconclusive: 14.6 µM [cytotoxic, partial curve] | 
Cc1ccc(CNS(=O)(=O)c2ccc3c(c2)CCN3C(=O)C2CCC2)cc1 | inactive | 
O=C(Nc1sc2c(c1C(=O)O)CCCCC2)c1ccco1 | inconclusive: 18.4 µM [cytotoxic, single point] | 
CCOC(=O)c1cc(-c2ccccc2)n(CCC(=O)Nc2nc3c(C)cccc3s2)c1C | inconclusive: 25.9 µM [cytotoxic, single point] | 
CCOC(=O)[C@]12CCC=C1N(Cc1ccc(Cl)cc1Cl)C(=O)[C@H](CC(=O)N1CCSCC1)C2 | inconclusive: 4.11 µM [cytotoxic, partial curve] | 
Cc1ccc(NC(=O)COC(=O)CN2C(=O)c3ccccc3C2=O)cc1 | inconclusive: 29.1 µM [rising, single point] | 
O=C(CCn1cncn1)N1CCCC(N2CCN(c3ccc(F)cc3)CC2)C1 (centres undefined) | inactive | 
Cc1ccccc1NS(=O)(=O)c1ccc2[nH]c3c(c2c1)CCCCC3 | inconclusive: 23.1 µM [cytotoxic, partial curve] | 
O=C(Nc1nc2ccccc2s1)C1CCN(C(=O)c2ccco2)CC1 | inconclusive: 16.4 µM [cytotoxic, single point] | 
Cc1ccc(NC(=O)C2(C)CCN2C2Cc3ccccc3C2)cc1 (centres undefined) | inactive | 
Cc1ccc(N(CC(=O)N2CCc3ccccc32)S(=O)(=O)c2cccs2)cc1 | inconclusive: 9.2 µM [cytotoxic, partial curve, poor fit] | 
CCOC(=O)N1CCN(c2c(-c3ccc(C)cc3)c(=O)c2=O)CC1 | inconclusive: 23.1 µM [rising, partial curve, poor fit] | 
O=C(N/N=C/c1cc(Cl)cc([N+](=O)[O-])c1O)c1ccc2c(c1)OCO2 | inactive | 
Cc1cc(C)n(-c2ccc(C(=O)NCCCN3CCOCC3)cc2)n1 | inactive | 
CN(C)S(=O)(=O)c1ccc(N2CCCC2)c(C(=O)NC(c2ccccc2)c2ccccc2)c1 | inconclusive: 11.6 µM [cytotoxic, partial curve] | 
Fc1cccc(CSc2ccc3nnc(-c4cccnc4)n3n2)c1 | inconclusive: 6.51 µM [cytotoxic, partial curve] | 
CN(c1ccc(OCC(=O)NCc2cccnc2)cc1)S(=O)(=O)c1ccc(Cl)cc1 | inconclusive: 29.1 µM [cytotoxic, single point] | 
Cc1ccc(C(=O)N(CN2CCCC2=O)c2ccc(F)cc2)cc1C | active: 18.4 µM | 
COc1ccc(CNC(=O)C2CCCN(S(=O)(=O)c3ccc4c(c3)C(C)(C)C(=O)N4C)C2)cc1 (centres undefined) | inconclusive: 1.16 µM [rising, partial curve, poor fit] | 
CCN1CCN(c2cc(-c3ccccc3)nc3cc(-c4cccc(F)c4)nn23)CC1 | inconclusive: 16.4 µM [cytotoxic, single point] | 

Compound | Potency | activity change, negative = cytotoxicity
Cc1cc(-c2ccccc2)nc(N/N=C/c2ccc(O)cc2)n1 | inconclusive: 25.9 µM [cytotoxic, partial curve, poor fit] | 
O=C(O)CSc1cc(C(F)(F)F)nc(-c2ccccn2)n1 | inactive | 
Cc1ccc(S(=O)(=O)Cc2ccc(C(=O)NCc3ccc4c(c3)OCO4)o2)cc1 | active: 9.2 µM | 
COc1ccc2c(c1)[nH]c1c(=O)n(Cc3ccco3)cnc12 | active: 14.6 µM | 
Cc1cnc(=O)[nH]c1SCC(=O)Nc1nc2ccccc2s1 | inconclusive: 29.1 µM [rising, single point] | 
COc1cccc2sc(=NC(=O)CS(=O)(=O)c3ccc(F)cc3)n(C)c12 | inactive | 
Cc1sc(NC(=O)CS(=O)(=O)c2ccccc2)c(C(N)=O)c1C | inconclusive: 20.6 µM [rising, single point] | 
O=C1C(=Cc2ccccn2)CCc2ccccc21 | inconclusive: 29.1 µM [cytotoxic, single point] | 
CC(C)(C)c1ccc(CSc2nnc(-c3ccccn3)n2Cc2ccco2)cc1 | inactive | 
CCOC(=O)C1=C(C)N=c2s/c(=C\c3ccc(OCC(=O)O)cc3)c(=O)n2C1c1ccc(OC(C)C)cc1 (centres undefined) | inconclusive: 10.3 µM [cytotoxic, partial curve, poor fit] | 
Cc1cc2c(cc3c(SCC(=O)Nc4cccc(Cl)c4C)nnc(C)n32)o1 | inconclusive: 29.1 µM [rising, single point] | 
CCOC(=O)c1cnc2ccccc2c1Nc1cccc(OC)c1 | inconclusive: 25.9 µM [cytotoxic, single point] | 
O=C(Nc1ccc2c(c1)CCC2)c1cccc(S(=O)(=O)Nc2ccccc2Cl)c1 | active: 20.6 µM | 
COc1ccc(-c2cccc(C(=O)Nc3ccc(C)cc3)c2)cc1 | inconclusive: 2.59 µM [cytotoxic, partial curve, poor fit] | 
Cn1c(=O)n(CCc2ccccc2)c(=O)c2c1nc1n2CCCN1Cc1ccccc1 | active: 20.6 µM | 
N#CC1(NC(=O)CN2CCc3ccccc3C2)CCCC1 |  | inconclusive: 1.01%
Cc1ccc(-c2nnc(SCC(=O)NCc3ccccc3)nc2-c2ccc(C)cc2)cc1 | inconclusive: 20.6 µM [cytotoxic, partial curve] | 
O=C(O)c1ccc(COc2ccccc2/C=C2/NC(=O)N(c3cccc(Cl)c3)C2=O)cc1 | inconclusive: 11.6 µM [rising, partial curve, poor fit] | 
CC(C)c1ccc(N2C(=NC(=O)C3CCCO3)SC3CS(=O)(=O)CC32)cc1 (centres undefined) | inconclusive: 14.6 µM [rising, partial curve, poor fit] | 
COc1ccc(/C=C/C(=O)Nc2ccc(Cl)c(Cl)c2)cc1 | inconclusive: 29.1 µM [cytotoxic, single point] | 
Nc1[nH]c(C(=O)c2ccccc2)c(-c2ccc(Cl)cc2Cl)c1C(=O)c1ccc(Br)cc1 | inconclusive: 20.6 µM [cytotoxic, partial curve, poor fit] | 
Cc1cc(-n2c(C)cc(C(=O)COC(=O)CN=C3NS(=O)(=O)c4ccccc43)c2C)no1 | inconclusive: 29.1 µM [cytotoxic, single point] | 
CCCCn1c(NC(=O)c2ccccc2)c(C#N)c2nc3ccccc3nc21 | active: 5.17 µM | 
